Experimental data: article PMC4894940, “The function of the two-pore channel TPC1 depends on dimerization of its carboxy-terminal helix” (Cellular and Molecular Life Sciences: CMLS, 2016)
Numbering of substitutions follows the chain as printed. Names and notes keep the numbering of the source. These are yes or no findings as the source states them, for the method shown. For some of these results: Binding seen in cells or lysates may run through a third protein. Some entries that bind do so weakly or less than the wild type. For some of these results: Tags and fused reporters may be left off the sequences shown. Values belong to the binder of their own block, whether it stands above or below them.

What was measured:
[1] = biological target: TPC1-3LP (L714, L715 and L719 to proline), full-length, C-terminally fused to the Venus halves (Arabidopsis thaliana) (UniProt Q94KI8); experiment: split reporter; Split Venus BiFC; Agrobacterium C58C1 strains with helper strain p19 co-infiltrated into N. benthamiana leaves; confocal microscopy and plate-reader fluorescence of leaf disks 2.5 days after infiltration
[2] = biological target: Synthetic 3LA mutant CTH peptide (residues 707-723 of TPC1 with L714A, L715A, L719A) (Arabidopsis thaliana); experiment: MST; label-free MST; 750 nM tryptophane-containing target peptide in PBS pH 7.5, 1 % DMSO, 0.1 % Pluronic, unlabeled ligand peptide varied from 3 nM to 100 µM, 25 °C, Monolith NT.labelfree; monomer to dimer; both purified
[3] = biological target: Soluble C-terminus of TPC1 (amino acids 673-733) fused to GFP, N-terminally 6xMyc- or FLAG-tagged (Arabidopsis thaliana) (UniProt Q94KI8); experiment: co-IP; HEK293T cells co-transfected; lysis buffer 10 mM HEPES, 150 mM NaCl, 1 % Nonidet P40, 5 % glycerol, pH 7.4; precipitation with anti-c-Myc 9E10 and protein G Dynabeads at 4 °C; western blot with anti-Myc or anti-Flag
[4] = biological target: Soluble C-terminus of TPC1-3LP (amino acids 673-733) fused to GFP, N-terminally 6xMyc- or FLAG-tagged (Arabidopsis thaliana) (UniProt Q94KI8); experiment: as above

B2: Soluble C-terminus of TPC1 (amino acids 673-733) fused to GFP, N-terminally 6xMyc- or FLAG-tagged (domain or fragment, UniProt Q94KI8 673-733)
chain: EAFFTELDLEEEEKCQGQDSQEKRNRRRSAGSKSRSQRVDTLLHHMLGDELSKPECSTSDT
binding [3]: binds

B3: Soluble C-terminus of TPC1-3LP (amino acids 673-733) fused to GFP, N-terminally 6xMyc- or FLAG-tagged (domain or fragment, UniProt Q94KI8 673-733)
chain: B2 chain with L42P, L43P, L47P
binding [4]: binds

Now from value to binder:

binding [1]: binds
B1: TPC1-3LP (L714, L715 and L719 to proline), full-length, C-terminally fused to the Venus halves (protein, UniProt Q94KI8 1-733)
chain: MEDPLIGRDSLGGGGTDRVRRSEAITHGTPFQKAAALVDLAEDGIGLPVEILDQSSFGESARYYFIFTRLDLIWSLNYFALLFLNFFEQPLWCEKNPKPSCKDRDYYYLGELPYLTNAESIIYEVITLAILLVHTFFPISYEGSRIFWTSRLNLVKVACVVILFVDVLVDFLYLSPLAFDFLPFRIAPYVRVIIFILSIRELRDTLVLLSGMLGTYLNILALWMLFLLFASWIAFVMFEDTQQGLTVFTSYGATLYQMFILFTTSNNPDVWIPAYKSSRWSSVFFVLYVLIGVYFVTNLILAVVYDSFKEQLAKQVSGMDQMKRRMLEKAFGLIDSDKNGEIDKNQCIKLFEQLTNYRTLPKISKEEFGLIFDELDDTRDFKINKDEFADLCQAIALRFQKEEVPSLFEHFPQIYHSALSQQLRAFVRSPNFGYAISFILIINFIAVVVETTLDIEESSAQKPWQVAEFVFGWIYVLEMALKIYTYGFENYWREGANRFDFLVTWVIVIGETATFITPDENTFFSNGEWIRYLLLARMLRLIRLLMNVQRYRAFIATFITLIPSLMPYLGTIFCVLCIYCSIGVQVFGGLVNAGNKKLFETELAEDDYLLFNFNDYPNGMVTLFNLLVMGNWQVWMESYKDLTGTWWSITYFVSFYVITILLLLNLVVAFVLEAFFTELDLEEEEKCQGQDSQEKRNRRRSAGSKSRSQRVDTPPHHMPGDELSKPECSTSDT

binding [2]: no binding (tested: 3 nM to 100 µM)
Binder: RSQRVDTAAHHMAGDEL [Synthetic 3LA mutant CTH peptide (residues 707-723 of TPC1 with L714A, L715A, L719A)]
